Assay results published in PubChem BioAssay AID602313 (National Center for Advancing Translational Sciences (NCATS), 2012).
Screen size: about 390,000 compounds; about 760 (0.19%) were called active. Inconclusive means that the source gave no clear call. Such entries were picked first, then a sample of the others. The call rests on the fitted dose curve; in most records, active means well fitted inhibition curve with a large enough effect; inconclusive means small, poorly fitted or top-dose-only effect; inactive means flat fitted curve, though single readings scatter. Potencies beside an inconclusive call are fits to weak or partial responses and may not hold up.

assay: qHTS for Inhibitors of Vif-A3F Interactions: qHTS; settings: HeLa A3F-eYFP + Vif (tagged APOBEC3F with the HIV-1 protein that degrades it), YFP fluorescence increase; series mostly up to 46.1 µM; activity, negative = active: at the top concentration; further: nearly all actives have a fitted effect of over 65% in size; on activity, negative = active: % of control where 0% means no effect
How it was run: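 Fluorescence increase (Ex 488/Em 500-530) after overnight compound treatment at 37 deg C flags inhibition of Vif-driven A3F-eYFP loss in stable HeLa A3F-eYFP/Vif cells seeded overnight beforehand.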
Potency means the concentration at half of the fitted maximal effect.

Row | Structure (SMILES) | Potency | activity, negative = active
1 | Cc1ccc(Cl)c(Nc2ccccc2C(=O)O)c1Cl | inactive | 
2 | COc1cccc(NC(=O)c2ccc(-c3ccc([N+](=O)[O-])cc3)o2)c1 | inconclusive: 20 µM [inhibitor, partial curve, poor fit] | 
3 | CC(C)C[C@H]1CN([C@@H](CC(C)C)CN2CCCC2CN2C(=S)NC[C@@H]2Cc2ccc(O)cc2)C(=S)N1CC1CCCCC1 (stereo partly drawn) | inconclusive: 15.8 µM [inhibitor, single point] | 
4 | COc1cc(OC)c(NS(=O)(=O)c2ccc3c(c2)NC(=O)CO3)cc1Cl |  | inactive: -9.8%
5 | O=C(CSc1ccc2ccccc2c1)NCCc1ccc(O)c(O)c1 |  | inactive: -13.8%
6 | CCNC(=S)NS(=O)(=O)c1ccc(C)cc1 | inconclusive: 14.1 µM [inhibitor, partial curve, poor fit] | 
7 | COC(=O)Nc1nc2ccc(SC(C)C)cc2[nH]1 | inconclusive: 35.5 µM [inhibitor, single point] | 
8 | Cc1cc(NC(=O)CSc2nc3ccccc3cc2C#N)no1 | inconclusive: 7.94 µM [inhibitor, partial curve, poor fit] | 
9 | Oc1ccc(N2CCN(c3nnnn3-c3ccccc3)CC2)cc1 | inconclusive: 35.5 µM [inhibitor, single point] | 
10 | CCN1CCc2c(sc(-n3cccc3)c2C(C)NC(=O)Nc2ccc(C(=O)OC)cc2)C1 (stereo not drawn) | active: 22.4 µM | 
11 | COc1ccc(-c2onc3ccc(C(C)=O)cc23)cc1 | inconclusive: 25.1 µM [inhibitor, single point] | 
12 | O=C(Cc1ccccc1)NN1C(=O)C2C3C=CC(C4CC34)C2C1=O (stereo not drawn) | inconclusive: 31.6 µM [inhibitor, single point] | 
13 | CC(=O)Nc1cccc(NC(=O)CSc2nnnn2Cc2ccccc2)c1 | inconclusive: 31.6 µM [inhibitor, single point] | 
14 | CCc1cccc(C)c1Nc1nn2c(=O)c3ccccc3nc2s1 | inconclusive: 10 µM [inhibitor, partial curve] | 
15 | CCN(CC)c1ccc(NC(=S)NC(=O)c2ccco2)cc1 | inconclusive: 35.5 µM [inhibitor, single point] | 
16 | CC(=O)Nc1ccc2ccc3cccc4ccc1c2c34 | inconclusive: 22.4 µM [inhibitor, single point] | 
17 | COc1ccccc1OC(C)C(=O)Nc1ccc(-c2nc3ccccc3s2)cc1 (stereo not drawn) | inconclusive: 31.6 µM [inhibitor, partial curve, poor fit] | 
18 | CC(C)c1ccc(NC(=O)c2n[nH]c(=O)c3ccccc23)cc1 | inconclusive: 5.62 µM [inhibitor, single point] | 
19 | CCOC(=O)N1CCN(C(=O)c2cc3c(-c4cccc(OC)c4)nn(C)c3s2)CC1 | inconclusive: 3.55 µM [inhibitor, full curve, poor fit] | 
20 | COc1cc(C(=O)NCC(c2cccs2)S(=O)(=O)c2ccc(F)cc2)cc(OC)c1OC (stereo not drawn) |  | inactive: -1.11%
21 | COc1cc2cc(CNc3ccc(C)cc3)c(=O)n(CC(=O)Nc3ccc(F)cc3F)c2cc1OC | inconclusive: 12.6 µM [inhibitor, partial curve, poor fit] | 
22 | Cc1ccc(C)c(NC(=S)NNc2ccc(F)cc2F)c1 | inconclusive: 15.8 µM [inhibitor, single point] | 
23 | CCOC(=O)c1cnc2ccc(OCC)cc2c1NCCCN1CCOCC1 |  | inactive: 1.3%

Some of these compounds in order of count of non-hydrogen atoms, ascending.
Row | Structure (SMILES) | Potency | activity, negative = active
6 | CCNC(=S)NS(=O)(=O)c1ccc(C)cc1 | inconclusive: 14.1 µM [inhibitor, partial curve, poor fit] | 
7 | COC(=O)Nc1nc2ccc(SC(C)C)cc2[nH]1 | inconclusive: 35.5 µM [inhibitor, single point] | 
1 | Cc1ccc(Cl)c(Nc2ccccc2C(=O)O)c1Cl | inactive | 
11 | COc1ccc(-c2onc3ccc(C(C)=O)cc23)cc1 | inconclusive: 25.1 µM [inhibitor, single point] | 
22 | Cc1ccc(C)c(NC(=S)NNc2ccc(F)cc2F)c1 | inconclusive: 15.8 µM [inhibitor, single point] | 
15 | CCN(CC)c1ccc(NC(=S)NC(=O)c2ccco2)cc1 | inconclusive: 35.5 µM [inhibitor, single point] | 
8 | Cc1cc(NC(=O)CSc2nc3ccccc3cc2C#N)no1 | inconclusive: 7.94 µM [inhibitor, partial curve, poor fit] | 
12 | O=C(Cc1ccccc1)NN1C(=O)C2C3C=CC(C4CC34)C2C1=O (stereo not drawn) | inconclusive: 31.6 µM [inhibitor, single point] | 
5 | O=C(CSc1ccc2ccccc2c1)NCCc1ccc(O)c(O)c1 |  | inactive: -13.8%
4 | COc1cc(OC)c(NS(=O)(=O)c2ccc3c(c2)NC(=O)CO3)cc1Cl |  | inactive: -9.8%
13 | CC(=O)Nc1cccc(NC(=O)CSc2nnnn2Cc2ccccc2)c1 | inconclusive: 31.6 µM [inhibitor, single point] | 
23 | CCOC(=O)c1cnc2ccc(OCC)cc2c1NCCCN1CCOCC1 |  | inactive: 1.3%
17 | COc1ccccc1OC(C)C(=O)Nc1ccc(-c2nc3ccccc3s2)cc1 (stereo not drawn) | inconclusive: 31.6 µM [inhibitor, partial curve, poor fit] | 
19 | CCOC(=O)N1CCN(C(=O)c2cc3c(-c4cccc(OC)c4)nn(C)c3s2)CC1 | inconclusive: 3.55 µM [inhibitor, full curve, poor fit] | 
10 | CCN1CCc2c(sc(-n3cccc3)c2C(C)NC(=O)Nc2ccc(C(=O)OC)cc2)C1 (stereo not drawn) | active: 22.4 µM | 
21 | COc1cc2cc(CNc3ccc(C)cc3)c(=O)n(CC(=O)Nc3ccc(F)cc3F)c2cc1OC | inconclusive: 12.6 µM [inhibitor, partial curve, poor fit] | 
3 | CC(C)C[C@H]1CN([C@@H](CC(C)C)CN2CCCC2CN2C(=S)NC[C@@H]2Cc2ccc(O)cc2)C(=S)N1CC1CCCCC1 (stereo partly drawn) | inconclusive: 15.8 µM [inhibitor, single point] | 

Following part

Row | Structure (SMILES) | Potency | activity, negative = active
24 | OC[C@H]1O[C@@H](n2cnc3c(NCc4ccco4)ncnc32)[C@H](O)[C@@H]1O | inconclusive: 35.5 µM [inhibitor, single point] | 
25 | COC(=O)CSc1nc2c(c(-c3ccco3)c1C#N)CCCC2 |  | inactive: -3.79%
26 | COc1ccccc1C1CCN(Cc2ccc3ccccc3c2)CC1 | inconclusive: 22.4 µM [inhibitor, single point] | 
27 | O=[N+]([O-])c1cc(Cl)ccc1-c1nc(-c2ccccc2)no1 |  | inactive: -3.16%
28 | O=C(CC12CC3CC(CC(C3)C1)C2)NC(=S)NCc1ccco1 | inconclusive: 22.4 µM [inhibitor, single point] | 
29 | CC(CC(=O)Nc1ncc([N+](=O)[O-])s1)c1ccccc1 (stereo not drawn) | inconclusive: 12.6 µM [inhibitor, partial curve, poor fit] | 
30 | O=C(NCc1ccccn1)c1c(O)c2cccc3c2n(c1=O)CC3 |  | inactive: -6.71%
31 | O=C(NC1CCCCC1)C(c1ccncc1)N(Cc1ccc(F)cc1)C(=O)c1ccccn1 (stereo not drawn) |  | inactive: 1.39%
32 | Nc1c(C(=O)Nc2ccc3c(c2)OCCO3)nnn1Cc1cccc(Br)c1 | inconclusive: 12.6 µM [inhibitor, single point] | 
33 | O=C(CN1CCN(c2ccc(O)cc2)CC1)Nc1ccc2c(c1)OCCO2 |  | inactive: -1.76%
34 | COC(=O)c1c(N2C(=O)[C@H]3[C@@H](C2=O)[C@]2(C(=O)Nc4c(C)cccc42)N2CCC[C@@H]32)sc(C)c1C | inconclusive: 12.6 µM [inhibitor, partial curve, poor fit] | 
35 | COC(=O)c1ccc(/C=C/c2ccc3cccc(OC)c3n2)cc1 | inconclusive: 35.5 µM [inhibitor, single point] | 
36 | COc1cnn(Cc2ccccc2)c(=O)c1SCc1ccccc1 | inconclusive: 35.5 µM [inhibitor, single point] | 
37 | O=C(Cn1ncc2c3ccccc3n(Cc3ccc(Cl)cc3)c2c1=O)NCc1ccccn1 | inconclusive: 35.5 µM [inhibitor, single point] | 
38 | COC(=O)c1sccc1NC(=O)c1cc(-c2ccc(C)cc2)nc2ccccc12 |  | inactive: -11.2%
39 | COCCNC(=S)N/N=C(\C)c1ccccc1O | inconclusive: 5.01 µM [inhibitor, full curve, poor fit] | 
40 | COc1ccc(NC(=O)C2CCCN(C(=O)Nc3ccc(OC)cc3)C2)cc1 (stereo not drawn) | inconclusive: 5.62 µM [inhibitor, single point] | 
41 | Cc1occc1C(=O)N/N=C/C1=C(N2CCOCC2)C(=C\c2ccc(Cl)cc2)/CC1 | inconclusive: 35.5 µM [inhibitor, single point] | 
42 | O=C(NCc1ccco1)c1scc2c1OCCO2 |  | inactive: 1.25%
43 | COc1cccc(C(=O)NNC(=O)CCN2CCN(c3ccccc3)CC2)c1 | inconclusive: 5.62 µM [inhibitor, single point] | 
44 | CC(C)N1C(=O)/C(=C\c2nc3ccccc3c(=O)[nH]2)c2ccccc21 |  | inactive: 6.02%
45 | Cc1ccc(C2(c3noc(CN4CCC(c5ccncc5)CC4)n3)CCCC2)cc1 | inconclusive: 2.82 µM [inhibitor, single point] | 
46 | CC(=O)Oc1cccc(/C=c2\sc3nc(-c4ccco4)nn3c2=O)c1 |  | inactive: -0.141%

Row | Structure (SMILES) | Potency | activity, negative = active
47 | C=CCNC(=O)c1sc(-c2ccccc2)nc1C | inconclusive: 1 µM [inhibitor, full curve] | 
48 | CC(C)Oc1cccc(C(=O)NC(=S)Nc2ccc3c4c(cccc24)CC3)c1 |  | inactive: -8.01%
49 | CCN(Cc1cc2cc(C)ccc2[nH]c1=O)S(=O)(=O)c1ccccc1 | inconclusive: 7.08 µM [inhibitor, partial curve, poor fit] | 
50 | COc1ccccc1/C=C/C(=O)OCC(=O)NC1CC1 | inconclusive: 3.16 µM [inhibitor, partial curve, poor fit] | 
51 | COc1cccc(NC(=O)CSc2nc3ccccc3nc2N2CCOCC2)c1 | inconclusive: 35.5 µM [inhibitor, single point] | 
52 | COc1cccc(/C=N/NC(=O)CSc2ccccc2C)c1O | inconclusive: 3.55 µM [inhibitor, partial curve, poor fit] | 
53 | Cc1ccc(C)c(N2CCN(C(=O)c3ccc(CS(=O)(=O)c4ccc(Br)cc4)o3)CC2)c1 |  | inactive: 1.15%
54 | Cc1cccc(NC(=S)NC2CC3C=CC2C3)c1 (stereo not drawn) | inconclusive: 22.4 µM [inhibitor, single point] | 
55 | CC(Sc1nc(-c2ccc(F)cc2)cs1)C(=O)N1c2ccccc2CC1C (stereo not drawn) | inconclusive: 3.55 µM [inhibitor, partial curve, poor fit] | 
56 | Cc1ccccc1NC1=NCC(c2ccc([N+](=O)[O-])cc2)S1 (stereo not drawn) |  | inactive: 11.2%
57 | CCCn1nnc(NC(=O)/C=C/c2ccco2)n1 |  | inactive: -3.78%
58 | Cc1coc2c(C)c3oc(=O)c(CCC(=O)NCCc4ccc(Cl)cc4)c(C)c3cc12 | inconclusive: 5.62 µM [inhibitor, single point] | 
59 | O=C(N/N=C/c1ccc2c(c1)OCO2)c1sc2cccc(Cl)c2c1Cl | inconclusive: 12.6 µM [inhibitor, single point] | 
60 | CCc1ccc(CNC(=O)c2ccc(-c3nc(CS(=O)(=O)c4ccccc4)c(C)o3)cc2)cc1 |  | inactive: -0.638%
61 | O=C(OCc1ccccc1)c1ccc(NCc2cc(O)ccc2O)cc1 | inconclusive: 35.5 µM [inhibitor, single point] | 
62 | CCOc1ccccc1-c1c2cc(O)c(=O)cc-2oc2cc(O)c(O)cc12 | inconclusive: 0.562 µM [inhibitor, full curve, poor fit] | 
63 | COc1ccc(Nc2nc(N)c([N+](=O)[O-])c(N3CCCC3)n2)cc1 | inconclusive: 10 µM [inhibitor, partial curve, poor fit] | 
64 | COc1cc2ncnc(NCc3ccc4c(c3)OCO4)c2cc1OC | inconclusive: 1 µM [inhibitor, partial curve, poor fit] | 
65 | O=C(CSc1nccn1Cc1ccc(F)cc1)Nc1ccc2c(c1)OCCO2 |  | inactive: -8.26%
66 | CCOc1ccc(Br)cc1C1=NN(C(C)=O)C(c2ccc([N+](=O)[O-])s2)O1 (stereo not drawn) | inconclusive: 1.58 µM [inhibitor, partial curve, poor fit] | 
67 | CCC(C)(C)c1ccc(Oc2ccc(N)cc2)cc1 | inconclusive: 5.62 µM [inhibitor, single point] | 
68 | C/C(=N\NC(=O)c1cc(C)nc2ccccc12)c1ccccn1 | inconclusive: 20 µM [inhibitor, single point] | 
